PubChem BioAssay AID504786 – Drosophila RNAi Screening Center – 2011
The screen tested about 21,000 reagents; shown is a random part of those that have a named target and a result. 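Primary screen; positive scores mean lost reporter signal, so the sign may be inverted from the usual convention.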 A slash parts repeat measurements. Names joined by + are all predicted targets of the reagent.

Assay: 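Knock-downs reducing HIF reporter induction by the iron chelator DFO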 (primary screen)
Cells: Drosophila S2 cells with a stable HIF luciferase reporter
Reagent: long dsRNA against Drosophila genes, about 0.2 µg dsRNA per well of a 384-well plate
Duration: three days of knock-down, then 20 h of DFO before reading
Challenge: desferrioxamine (DFO) at 100 µM, an iron chelator that mimics hypoxia, for 20 h
Measured: 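Firefly luciferase driven by the mouse ldh-a hypoxia-response element, measured after 20 h of 100 µM DFO; z-scores per plate, higher means more signal lost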
Direction: z-score: higher = stronger loss of HIF reporter signal

gene knocked down,amplicon,"z-score, replicate 1","z-score, replicate 2","z-score, replicate 3","z-score, replicate 4"
Lerp (GeneID 43223),DRSC14750,-0.5,-0.9,,
Lerp (GeneID 43223),DRSC14751,-0.3,-0.6,,
Lerp (GeneID 43223),DRSC16030,-0.4,-0.6,,
Lerp (GeneID 43223),DRSC16031,-0.2,-0.5,,
mRpL19 (GeneID 41028),DRSC16367,-0.4,-0.8,-0.7,-0.4
CG8813 (GeneID 33490),DRSC00706,-0.3,-0.2,,
CG1635 (GeneID 43720),DRSC15131,-0.1,-0.2,,
Herp (GeneID 34065),DRSC02394,-0.4,-0.8,,
CecB (GeneID 43598),DRSC16605,-0.4,0.4,,
CG4763 (GeneID 37771),DRSC04009,-0.1,-0.2,,
CG4763 (GeneID 37771),DRSC04487,-0.4,-0.4,,
Mpcp2 (GeneID 39587),DRSC11226,-0.1,-0.2,,
EloA (GeneID 42749),DRSC16109,0.3,0.8,,
CG33791 + CG12105 + CG18170,DRSC08387,-0.3,0.8,,
CG16782 (GeneID 31313),DRSC18118,-0.3,0.4,,
CG17734 (GeneID 41359),DRSC15256,-0.4,-0.7,0,-0.3
Rpt4 (GeneID 31567),DRSC18713,4.9,4.9,,
Ugt35E1 (GeneID 53504),DRSC15193,-0.4,-0.4,,
ALiX (GeneID 43330),DRSC14564,-0.4,-0.7,,
Prp31 (GeneID 39655),DRSC10735,1.1,1.5,,
Dhc36C (GeneID 35061),DRSC03315,-0.2,-0.4,,
ktub (GeneID 37400),DRSC04551,-0.3,-0.4,,
CG15882 (GeneID 32895),DRSC19735,-0.4,-0.2,,
PIG-U (GeneID 34185),DRSC02193,-0.2,-0.5,,
CG14151 (GeneID 39201),DRSC10153,-0.2,0,,
CG5087 (GeneID 39035),DRSC10479,-0.1,0,,
Ufsp2 (GeneID 39687),DRSC10231,-0.3,-0.6,,
qjt (GeneID 39952),DRSC10060,-0.2,-0.1,,
CG18223 (GeneID 40068),DRSC10306,0,0,,
dbf (GeneID 34462),DRSC02570,-0.1,0,,

Continued; the last 7 above are carried over.
gene knocked down,amplicon,"z-score, replicate 1","z-score, replicate 2","z-score, replicate 3","z-score, replicate 4"
PIG-U (GeneID 34185),DRSC02193,-0.2,-0.5,,
CG14151 (GeneID 39201),DRSC10153,-0.2,0,,
CG5087 (GeneID 39035),DRSC10479,-0.1,0,,
Ufsp2 (GeneID 39687),DRSC10231,-0.3,-0.6,,
qjt (GeneID 39952),DRSC10060,-0.2,-0.1,,
CG18223 (GeneID 40068),DRSC10306,0,0,,
dbf (GeneID 34462),DRSC02570,-0.1,0,,
CG2921 (GeneID 37515),DRSC04324,-0.3,-0.1,,
Der-2 (GeneID 42005),DRSC15021,-0.5,-0.3,,
Vps4 (GeneID 32777),DRSC19338,0.9,2.5,,
hpRNA:CR18854 (GeneID 10178800),DRSC02702,-0.2,0.4,,
brun (GeneID 35325),DRSC02706,-0.5,-0.3,,
dlt (GeneID 46719),DRSC08705,0,0.1,,
CG11695 (GeneID 32106),DRSC19416,0.4,0.9,,
angel (GeneID 37748),DRSC04670,-0.3,-0.7,,
CG7639 (GeneID 36675),DRSC07026,-0.3,-0.5,,
bin3 (GeneID 35552),DRSC04919,0.5,0.6,,
mib2 (GeneID 35170),DRSC02623,-0.4,-0.4,,
CG16854 (GeneID 34539),DRSC02536,-0.4,-0.5,,
CG10073 (GeneID 37225),DRSC05961,-0.1,-0.4,,
rha (GeneID 43071),DRSC17044,-0.2,-0.3,,
CG14933 + CG42486,DRSC02415,0.1,0.2,,
CG12998 (GeneID 32710),DRSC19518,-0.4,-0.4,,
TwdlL (GeneID 43203),DRSC16042,-0.3,-0.3,,
CG12620 (GeneID 35034),DRSC02177,-0.2,-0.5,,
Mgat1 (GeneID 37323),DRSC07463,-0.2,0.2,,
Nep5 (GeneID 43255),DRSC16004,-0.3,-0.4,,
Amyrel (GeneID 36863),DRSC05920,-0.2,-0.8,,
CG9933 (GeneID 34700),DRSC03276,-0.3,0,,
CG32832 (GeneID 318237),DRSC01562,-0.2,-0.7,,
St1 (GeneID 37742),DRSC04504,-0.3,-0.1,,
spab (GeneID 35901),DRSC07112,-0.4,-0.4,,
VhaAC45RP (GeneID 318563),DRSC15423,-0.8,-0.2,,
RpL5 (GeneID 3355124),DRSC03801,7.4,5.4,,
CG10866 (GeneID 38461),DRSC08171,-0.3,-0.4,,
ppk10 (GeneID 3885617),DRSC01123,0.7,0.2,,
CG5160 (GeneID 34015),DRSC02821,-0.4,0.2,,
Thor (GeneID 33569),DRSC00770,-0.4,-0.5,,
CG17361 (GeneID 39548),DRSC10266,0.4,0.2,,
LManIV (GeneID 34204),DRSC03222,-0.3,-0.3,,
CG10651 (GeneID 35303),DRSC02086,-0.1,-0.1,,
CG15916 (GeneID 32549),DRSC19740,-0.3,-0.8,,
CG33286 (GeneID 2768984),DRSC11691,-0.3,-0.5,,
Dic3 (GeneID 35763),DRSC06058,-0.4,-0.4,,
CG5890 (GeneID 43126),DRSC15909,-0.2,-0.2,,
eIF3i (GeneID 33710),DRSC03464,6.1 / 6.1 / 6.5,6.5 / 6.4,,
d-cup (GeneID 41580),DRSC14846,0,0.3,,
DZIP1 (GeneID 42921),DRSC14620,-0.3,-0.2,,
Pyroxd1 (GeneID 35296),DRSC02098,-0.1,-0.4,,
CG13907 (GeneID 38104),DRSC08377,-0.2,-0.2,,
CG4360 (GeneID 42413),DRSC15566,-0.2,-0.3,,
Slip1 (GeneID 43809),DRSC17146,-0.2,-0.1,,
CG8483 (GeneID 41623),DRSC16430,-0.4,0,,
CG15729 (retired record) (GeneID 32204),DRSC19695,0.1,0.7,,
RpS14a (GeneID 47218),DRSC18710,5.6,4.6,,
Rh4 (GeneID 39887),DRSC11268,-0.3,0,,
Rip11 (GeneID 32850),DRSC20000,-0.3,-0.7,,
CG32563 (GeneID 32706),DRSC19934,-0.4,-0.6,,
janA (GeneID 43569),DRSC16972,-0.3,-0.2,,
loqs (GeneID 34751),DRSC02997,-0.3,-0.4,,
